Reference: doi:10.1101/2024.10.12.618001
No constants are given. Whether binding was seen depends on the method and setting. Some entries that bind do so weakly or less than the wild type.

Chains of the proteins cited; added tags and fusions are not shown. Residues count along the entry.
UniProt P25445, residues 26-173: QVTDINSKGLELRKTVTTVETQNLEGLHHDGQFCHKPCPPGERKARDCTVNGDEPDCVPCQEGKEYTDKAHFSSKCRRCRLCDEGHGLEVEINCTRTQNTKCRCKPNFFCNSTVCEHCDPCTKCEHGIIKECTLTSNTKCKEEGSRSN
UniProt P48023, residues 130-281: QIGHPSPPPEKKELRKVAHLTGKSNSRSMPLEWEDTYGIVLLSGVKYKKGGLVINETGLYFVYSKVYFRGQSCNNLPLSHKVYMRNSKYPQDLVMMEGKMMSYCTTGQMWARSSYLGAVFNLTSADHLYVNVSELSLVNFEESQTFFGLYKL

Molecular target: CD95-His receptor protein (Sino Biological) (UniProt P25445)
Assay: native gel or EMSA

binding	Substance
binds	CD95-His receptor protein (Sino Biological) (from UniProt P25445 26-173)
binds	soluble CD95L (Enzo Life Sciences) (from UniProt P48023 130-281) (ligand)
